Test results as given in article PMC4811774.
These are yes or no findings as the source states them, for the method shown. A result given as binding can be weak or reduced; the word gives no strength. For part of these data: In cells and extracts the contact can be indirect.

Amino acid sequences for entries named in this document (tags omitted). A change or cut given only in a name is not applied to a line headed by its entry.
UniProt O81283: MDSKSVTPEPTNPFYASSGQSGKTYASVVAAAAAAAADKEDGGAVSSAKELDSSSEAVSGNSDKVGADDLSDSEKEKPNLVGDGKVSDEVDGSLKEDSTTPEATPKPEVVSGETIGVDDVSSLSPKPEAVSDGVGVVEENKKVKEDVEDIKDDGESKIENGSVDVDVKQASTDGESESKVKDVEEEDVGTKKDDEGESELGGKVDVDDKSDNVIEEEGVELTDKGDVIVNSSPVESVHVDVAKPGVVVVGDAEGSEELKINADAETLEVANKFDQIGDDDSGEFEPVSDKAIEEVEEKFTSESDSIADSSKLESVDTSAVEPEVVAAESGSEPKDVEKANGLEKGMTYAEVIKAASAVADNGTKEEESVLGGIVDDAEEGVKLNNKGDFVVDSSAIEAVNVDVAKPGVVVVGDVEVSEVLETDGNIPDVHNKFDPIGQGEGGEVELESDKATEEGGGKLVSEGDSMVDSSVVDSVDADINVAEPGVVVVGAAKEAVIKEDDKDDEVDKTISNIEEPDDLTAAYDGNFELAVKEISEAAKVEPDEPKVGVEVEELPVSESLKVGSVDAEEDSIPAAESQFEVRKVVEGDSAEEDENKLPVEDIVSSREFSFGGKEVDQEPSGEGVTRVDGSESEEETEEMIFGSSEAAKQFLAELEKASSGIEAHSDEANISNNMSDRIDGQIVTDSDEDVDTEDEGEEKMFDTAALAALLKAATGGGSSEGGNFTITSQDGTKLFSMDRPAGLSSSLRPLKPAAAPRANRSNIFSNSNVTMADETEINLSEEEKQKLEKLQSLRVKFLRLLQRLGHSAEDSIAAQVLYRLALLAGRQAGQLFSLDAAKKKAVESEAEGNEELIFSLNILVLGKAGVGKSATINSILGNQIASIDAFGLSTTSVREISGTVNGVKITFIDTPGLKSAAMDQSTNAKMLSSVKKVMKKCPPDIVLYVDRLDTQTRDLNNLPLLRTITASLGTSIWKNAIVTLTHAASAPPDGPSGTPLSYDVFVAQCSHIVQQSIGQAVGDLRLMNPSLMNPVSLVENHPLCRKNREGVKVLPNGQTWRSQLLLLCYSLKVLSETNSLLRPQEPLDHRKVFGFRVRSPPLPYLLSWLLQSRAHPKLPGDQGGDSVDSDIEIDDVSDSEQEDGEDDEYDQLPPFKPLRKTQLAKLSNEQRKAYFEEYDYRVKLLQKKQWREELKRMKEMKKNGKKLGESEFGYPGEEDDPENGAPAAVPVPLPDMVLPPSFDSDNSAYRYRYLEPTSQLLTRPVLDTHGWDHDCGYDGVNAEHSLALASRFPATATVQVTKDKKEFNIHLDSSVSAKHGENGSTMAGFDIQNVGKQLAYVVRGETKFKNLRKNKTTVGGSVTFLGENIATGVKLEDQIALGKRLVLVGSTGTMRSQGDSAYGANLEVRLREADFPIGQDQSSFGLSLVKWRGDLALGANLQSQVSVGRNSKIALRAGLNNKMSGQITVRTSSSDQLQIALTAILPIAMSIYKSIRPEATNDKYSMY
UniProt Q9STE8: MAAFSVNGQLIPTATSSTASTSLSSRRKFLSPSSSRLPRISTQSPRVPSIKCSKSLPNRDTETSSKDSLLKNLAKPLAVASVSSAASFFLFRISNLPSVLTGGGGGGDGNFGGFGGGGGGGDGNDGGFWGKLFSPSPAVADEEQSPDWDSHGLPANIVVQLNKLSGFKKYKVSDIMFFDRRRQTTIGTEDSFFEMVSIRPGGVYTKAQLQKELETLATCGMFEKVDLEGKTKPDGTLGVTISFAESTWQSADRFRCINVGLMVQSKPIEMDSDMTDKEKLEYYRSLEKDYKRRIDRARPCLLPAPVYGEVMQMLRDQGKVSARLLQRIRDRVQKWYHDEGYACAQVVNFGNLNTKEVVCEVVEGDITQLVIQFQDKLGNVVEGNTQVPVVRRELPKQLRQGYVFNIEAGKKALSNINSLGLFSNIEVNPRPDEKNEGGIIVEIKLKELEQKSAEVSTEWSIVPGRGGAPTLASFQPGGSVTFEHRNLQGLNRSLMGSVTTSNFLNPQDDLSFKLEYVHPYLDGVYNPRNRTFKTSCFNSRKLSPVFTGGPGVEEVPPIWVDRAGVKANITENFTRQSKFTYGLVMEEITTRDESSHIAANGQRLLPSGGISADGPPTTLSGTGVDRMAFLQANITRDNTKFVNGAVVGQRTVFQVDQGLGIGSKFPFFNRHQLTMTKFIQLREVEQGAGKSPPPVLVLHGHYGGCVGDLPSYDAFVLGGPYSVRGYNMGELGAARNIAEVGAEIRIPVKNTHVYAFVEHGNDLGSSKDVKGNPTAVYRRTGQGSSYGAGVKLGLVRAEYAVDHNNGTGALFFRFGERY

Assays:
[1] = molecular target: T1, Toc33 (Arabidopsis thaliana (endogenous in chloroplasts)) (UniProt O23680); assay: native gel or EMSA; 2D blue-native PAGE: chloroplast membranes solubilised in 1% decylmaltoside, 4-12% BN-PAGE at 4°C, then 5-12% SDS-PAGE and immunoblotting; co-migration
T1 sequence: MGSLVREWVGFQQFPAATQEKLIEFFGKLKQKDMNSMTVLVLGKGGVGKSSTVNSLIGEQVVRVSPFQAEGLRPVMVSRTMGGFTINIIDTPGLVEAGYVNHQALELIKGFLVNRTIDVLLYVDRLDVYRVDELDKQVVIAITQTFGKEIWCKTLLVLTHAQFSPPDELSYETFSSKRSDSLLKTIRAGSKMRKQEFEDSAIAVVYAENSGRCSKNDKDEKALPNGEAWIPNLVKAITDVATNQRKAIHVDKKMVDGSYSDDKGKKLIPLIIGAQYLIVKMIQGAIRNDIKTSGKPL

[2] = molecular target: Toc159 (Arabidopsis thaliana (endogenous in chloroplasts)) (UniProt O81283); assay: as above
[3] = molecular target: T1, Toc33 (Arabidopsis thaliana (endogenous in chloroplasts)); assay: co-IP; immunoaffinity chromatography of detergent-soluble chloroplast membranes from TOC75, TOC75ΔP1#2 and TOC75ΔP1-2#2 plants on anti-atToc33 Sepharose under native conditions; eluates immunoblotted

Row | binding [1] | binding [2] | binding [3] | Substance
1 | binds | no binding | binds | Toc75ΔP1-2 (from UniProt Q9STE8)
2 | binds | binds | binds | Toc75ΔP1 (from UniProt Q9STE8)
